From PubChem BioAssay AID504834 (National Center for Advancing Translational Sciences (NCATS), 2011)
Hit rate of the full screen: of about 320,000 compounds, about 22,000 (6.9%) were called active. Inconclusive means that the source gave no clear call. Such entries were picked first, then a sample of the others. Calls follow the shape of the dose curve; as a rule, active = well fitted inhibition curve with a large enough effect; inconclusive = small, poorly fitted or top-dose-only effect, or another doubt; inactive = no such curve, though single readings can be large or run the other way. Potencies beside an inconclusive call are fits to weak or partial responses and may not hold up.

experiment: Primary qHTS for delayed death inhibitors of the malarial parasite plastid, 96 hour incubation; conditions: P. falciparum luciferase reporter growth; series mostly up to 28.7 µM
Procedure, shortened: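 Plates of compound plus infected erythrocytes (2% hematocrit, 0.05% parasitemia final) incubate 96 hours, 37 C, 5% CO2. Detection reagent added; reduced luminescence from the parasites' luciferase reporter flags inhibition.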
% is scaled to controls: 0 for no effect and ±100 for the full control effect; potency is read from the fitted curve at half-maximal effect.

Structure (SMILES) | Potency | activity change, negative = inhibition
Cc1cc(C)n(-c2ccc(NN=C(C#N)C#N)cc2)n1 | inconclusive: 2.08 µM [inhibitor, full curve, poor fit] | –
O=C(Nc1ccc2c(c1)OCO2)N1CCN(C/C=C/c2ccccc2)CC1 | inactive | –
Cc1cc(C)c2c(N)c(C(=O)N/N=C/c3cccnc3)sc2n1 | inactive | –
Cc1ccc(NC(=O)C2C3/C=C\CCCCC32)cc1 (stereo not drawn) | inconclusive: 8.28 µM [inhibitor, partial curve, poor fit] | –
c1ccc(C2=Nn3c(nnc3-c3ccncc3)SC2)cc1 | inactive | –
CCOC(=O)c1nn(-c2ccccc2)c(=O)c2c(N)sc(C)c12 | inconclusive: 11.7 µM [inhibitor, single point] | –
Cc1ccccc1NC(=O)c1cc(=O)c2ccccc2o1 | inactive | –
O=C(Nc1cccc2cccnc12)c1cccc([N+](=O)[O-])c1 | inactive | –
COc1cc(C(=O)N2CCN(C/C=C/c3ccccc3)CC2)cc(OC)c1OC | inconclusive: 11.7 µM [inhibitor, partial curve, poor fit] | –
Cc1ccc(NC(=O)c2nc[nH]c2C(=O)N[C@H](C)c2ccccc2)cc1 | inconclusive: 16.5 µM [inhibitor, single point] | –
CC/C(=N\NS(=O)(=O)c1ccc(C)cc1)c1ccco1 | inactive | –
Cc1cccc(-n2ncc3c(NC(C)C)ncnc32)c1 | inactive | –
CC(C)C(=O)Nc1cccc(-c2cnc3ccccc3n2)c1 | inactive | –
CC(Oc1ccccc1)C(=O)Nc1ccc(S(=O)(=O)N2CCCC2)cc1 (stereo not drawn) | inactive | –
COc1ccc(CNC(=S)Nc2ccccc2)cc1Cl | inconclusive: 9.28 µM [inhibitor, partial curve] | –
Cc1ccc(CNC(=O)c2nccnc2C(=O)O)cc1 | active: 4.65 µM | –
COc1ccccc1S(=O)(=O)Cc1ccc(C(=O)NCCN2CCCCCC2)o1 | inconclusive: 8.28 µM [inhibitor, partial curve, poor fit] | –
CCOC(=O)c1sc(N(Cc2ccccc2)C(=O)COC(=O)c2ccccc2O)nc1C | inactive | –
CSc1cccc(NC(=O)c2ccc(Cl)nc2)c1 | inconclusive: 9.28 µM [inhibitor, single point] | –
N#CCc1ccc(Oc2ccc([N+](=O)[O-])cn2)cc1 | inconclusive: 0.329 µM [inhibitor, full curve, poor fit] | –
C=CCN1C(=O)C(Cc2ccc(OC)cc2)S/C1=N\N=C\c1cccs1 (stereo not drawn) | inconclusive: 10.4 µM [inhibitor, single point] | –
CC1(C)CC(=O)C(C(=S)Nc2ccc(F)cc2)=C(NCCN2CCOCC2)C1 | inconclusive: 18.5 µM [inhibitor, single point] | –
CCN(CC)S(=O)(=O)c1ccc(N(C)Cc2cccnc2)nc1 | inconclusive: 10.4 µM [inhibitor, single point] | –
FC(F)Oc1ccc(NC(=S)NCCc2ccccn2)cc1 | inactive | –
CCC(Cc1ccccc1)NC(=O)c1cc(S(=O)(=O)N2CCCCC2)c[nH]1 (stereo not drawn) | active: 2.94 µM | –

Five of the compounds above, in markdown.

| Structure (SMILES) | Potency | activity change, negative = inhibition |
| --- | --- | --- |
| Cc1ccccc1NC(=O)c1cc(=O)c2ccccc2o1 | inactive | – |
| O=C(Nc1cccc2cccnc12)c1cccc([N+](=O)[O-])c1 | inactive | – |
| COc1cc(C(=O)N2CCN(C/C=C/c3ccccc3)CC2)cc(OC)c1OC | inconclusive: 11.7 µM [inhibitor, partial curve, poor fit] | – |
| Cc1ccc(NC(=O)c2nc[nH]c2C(=O)N[C@H](C)c2ccccc2)cc1 | inconclusive: 16.5 µM [inhibitor, single point] | – |
| CC/C(=N\NS(=O)(=O)c1ccc(C)cc1)c1ccco1 | inactive | – |

Next structures follow:

Structure (SMILES) | Potency | activity change, negative = inhibition
Fc1ccc2c(c1)C(c1ccncc1)=NNC(c1ccc(Cl)cc1)=N2 | inconclusive: 9.28 µM [inhibitor, partial curve] | –
COc1ccccc1N(CC(=O)Nc1ccccc1C(=O)N1CCCC1)S(C)(=O)=O | active: 9.28 µM | –
Cc1ccc(CN2C3=NCCCN3c3ccccc32)cc1 | inconclusive: 0.131 µM [inhibitor, full curve, poor fit] | –
Cc1cc(C)c(C(=O)Nc2ccccc2)c(CC(C)(C)C(=O)O)c1 | inactive | –
COc1ccc(/C=N/NC(=O)CN(c2ccc(OC)cc2)S(=O)(=O)c2ccccc2)cc1 | inconclusive: 16.5 µM [inhibitor, single point] | –
CN(CCOc1ccc(Cl)cc1)C(=O)Cc1ccc(S(=O)(=O)N2CCOCC2)s1 | inconclusive: 18.5 µM [inhibitor, single point] | –
O=C(CN1CCN(c2ccc([N+](=O)[O-])cc2)CC1)c1ccccc1 | inconclusive: 14.7 µM [inhibitor, partial curve, poor fit] | –
CCCOC1CCCN(C(=O)c2ccc3oc(C(C)C)nc3c2)C1 (stereo not drawn) | inactive | –
CN1CCC(=C2c3ccccc3Sc3ccccc32)CC1 | inconclusive: 0.953 µM [inhibitor, partial curve, poor fit] | –
COc1ccc(-c2cc(=O)oc3c(C)c(OC(C)C(=O)N4C[C@H]5C[C@@H](C4)c4cccc(=O)n4C5)ccc23)cc1 (stereo partly drawn) | inconclusive: 7.38 µM [inhibitor, partial curve] | –
Cc1cccc(-n2c(O)c(/C=N/N3CCOCC3)c(=O)[nH]c2=S)c1 | inconclusive: 10.4 µM [inhibitor, single point] | –
COC(=O)c1cc(CN2CCN(c3ccccc3)CC2)ccc1O | inconclusive: 13.1 µM [inhibitor, single point] | –
COc1ccccc1NC(=O)Nc1nn(C)c2cccc(N(C)C)c12 | inconclusive: 9.28 µM [inhibitor, partial curve, poor fit] | –
COc1ccc(CN2CCC(C(=O)NCCc3ccc(OC)c(OC)c3)CC2)c(OC)c1 | inconclusive: 18.5 µM [inhibitor, single point] | –
CCc1noc(C)c1C(=O)N1CCCC1 | inconclusive: 11.7 µM [inhibitor, single point] | –
CC1CC(C)(C)N(C(=O)CN2C(=O)CCC2=O)c2ccccc21 (stereo not drawn) | inconclusive: 5.86 µM [inhibitor, partial curve] | –
Cc1nc(N2CCN(C(=O)c3ccco3)CC2)c2c3c(sc2n1)CCCC3 | inconclusive: 8.28 µM [inhibitor, single point] | –
CCOC(=O)c1ccccc1NC(=S)N1CCN(C(=O)c2ccco2)CC1 | inconclusive: 20.8 µM [inhibitor, partial curve, poor fit] | –
O=C(CN1C(=O)NC2(CCCCCCC2)C1=O)N1CCc2ccccc2C1 | inconclusive: 10.4 µM [inhibitor, partial curve, poor fit] | –
c1ccc2c(c1)NC(c1ccncc1)n1c-2nc2ccccc21 (stereo not drawn) | inactive | –
O=Cc1c[nH]c2ccc(S(=O)(=O)N3CCOCC3)cc12 | inactive | –
Cc1[nH]nc(-c2ccc(OCc3cnn(-c4ccccc4)c3)cc2O)c1Oc1ccc(F)cc1 | active: 9.28 µM | –
COc1cc(/C=N/NC(=O)c2cn(-c3cccc(C)n3)cn2)ccc1O | inactive | –
C=CCc1c(Cl)nc(C)nc1NCc1ccccc1 | inconclusive: 18.5 µM [inhibitor, single point] | –
O=C(NC1CCN(C(=O)c2cccc([N+](=O)[O-])c2)CC1)c1ccccc1 | inactive | –

Structure (SMILES) | Potency | activity change, negative = inhibition
COc1ccc(S(=O)(=O)N2CCNCC2)cc1 | inconclusive: 18.5 µM [inhibitor, partial curve, poor fit] | –
O=C(Nc1cccnc1Cl)C1c2ccccc2Oc2ccccc21 | inactive | –
COc1ccc(O)c(C(=O)c2cc(C(=O)NCCc3ccccc3)c(=O)n(CCc3ccccc3)c2)c1 | inconclusive: 3.29 µM [inhibitor, partial curve, poor fit] | –
CC(=O)c1cccc(NC(=O)N2CCCC2C(=O)NCc2ccccc2)c1 (stereo not drawn) | inactive | –
CC1CCCCC1NC(=S)Nc1cccc(S(=O)(=O)N(C)C)c1 (stereo not drawn) | inactive | –
COCCCn1nnnc1SCC(=O)N1CCCC1 | inactive | –
COC(=O)C1=NN(C(=O)c2ccc(Br)cc2)C(O)(C(C)(C)C)C1 (stereo not drawn) | – | inactive: 15.6% [at 5.75 µM]
CCN(CC)S(=O)(=O)c1ccc(=O)[nH]c1 | inactive | –
CCNC(=S)NN=C1CCC(C(C)(C)C)CC1 (stereo not drawn) | inconclusive: 18.5 µM [inhibitor, partial curve, poor fit] | –
COc1cccc(C(=O)COc2ccc(NC(=O)c3ccccc3)cc2)c1 | inconclusive: 13.1 µM [inhibitor, partial curve, poor fit] | –
COc1ccc(OC(C)C(=O)NCCc2nc3ccccc3[nH]2)cc1 (stereo not drawn) | inconclusive: 3.7 µM [inhibitor, partial curve, poor fit] | –
COc1ccc(Cn2c(N)c(C#N)c3nc4ccccc4nc32)cc1OC | inconclusive: 18.5 µM [inhibitor, single point] | –
O=C(CNC(=O)C1CC(=O)N(c2cccc3ccccc23)C1)Nc1ccccc1Br (stereo not drawn) | inconclusive: 10.4 µM [inhibitor, single point] | –
CSc1ccccc1-c1nnc(NC(=O)Cc2ccccc2)o1 | inconclusive: 5.22 µM [inhibitor, partial curve] | –
COc1ccc(/C=N/NC(=O)CN(C2=NS(=O)(=O)c3ccccc32)c2ccccc2)cc1 | inactive | –
CC(C)N=C(N)N=C(N)Nc1ccc(Cl)cc1 | active: 0.329 µM | –
COc1cc2c(C)nc(C)c(C#N)c2cc1OC | – | inactive: -3.87% [at 5.75 µM]
CCN(CC)C(=O)Cn1c(=O)n(-c2ccccc2)c(=O)c2c3c(sc21)CCC3 | inconclusive: 10.4 µM [inhibitor, partial curve] | –
CC1(C)Cc2cccc(OCC(O)CN3CCN(c4ccccn4)CC3)c2O1 (stereo not drawn) | inconclusive: 18.5 µM [inhibitor, single point] | –
COc1ccc(C2C(C#N)=C(N)N(N(C)C)C3=C2C(=O)CC(C)(C)C3)cc1OC (stereo not drawn) | inconclusive: 9.28 µM [inhibitor, partial curve, poor fit] | –
CC(=Nc1cccc(C)c1)c1sc2ccccc2c1O | inactive | –
COc1ccc(CCN(C(=O)C(F)(F)F)C(C(=O)NC2CCCCC2)c2cccs2)cc1 (stereo not drawn) | inconclusive: 0.185 µM [inhibitor, full curve, poor fit] | –
CCCc1cc(=O)c2c(O)ccc(OC)c2o1 | inactive | –
